Reference: PMC4477613

By UniProt entry, the sequences of proteins in these tests, tags left out. Residues count along the entry.
UniProt P38646, residues 47-679: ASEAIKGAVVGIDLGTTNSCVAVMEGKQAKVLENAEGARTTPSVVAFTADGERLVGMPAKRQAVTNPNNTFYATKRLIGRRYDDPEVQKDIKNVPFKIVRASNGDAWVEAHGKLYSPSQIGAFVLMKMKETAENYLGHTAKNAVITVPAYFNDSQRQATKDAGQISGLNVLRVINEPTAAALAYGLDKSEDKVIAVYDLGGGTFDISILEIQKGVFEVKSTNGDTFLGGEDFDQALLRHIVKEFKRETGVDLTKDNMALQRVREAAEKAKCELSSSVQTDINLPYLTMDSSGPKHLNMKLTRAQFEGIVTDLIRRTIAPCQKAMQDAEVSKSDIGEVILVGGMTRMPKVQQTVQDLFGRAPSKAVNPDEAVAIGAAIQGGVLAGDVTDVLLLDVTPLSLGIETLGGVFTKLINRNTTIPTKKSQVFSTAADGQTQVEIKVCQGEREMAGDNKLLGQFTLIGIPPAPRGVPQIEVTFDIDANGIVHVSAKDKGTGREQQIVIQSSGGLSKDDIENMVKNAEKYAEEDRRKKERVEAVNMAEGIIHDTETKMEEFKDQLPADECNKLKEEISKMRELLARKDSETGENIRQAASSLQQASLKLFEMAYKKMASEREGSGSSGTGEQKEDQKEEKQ
UniProt P08238: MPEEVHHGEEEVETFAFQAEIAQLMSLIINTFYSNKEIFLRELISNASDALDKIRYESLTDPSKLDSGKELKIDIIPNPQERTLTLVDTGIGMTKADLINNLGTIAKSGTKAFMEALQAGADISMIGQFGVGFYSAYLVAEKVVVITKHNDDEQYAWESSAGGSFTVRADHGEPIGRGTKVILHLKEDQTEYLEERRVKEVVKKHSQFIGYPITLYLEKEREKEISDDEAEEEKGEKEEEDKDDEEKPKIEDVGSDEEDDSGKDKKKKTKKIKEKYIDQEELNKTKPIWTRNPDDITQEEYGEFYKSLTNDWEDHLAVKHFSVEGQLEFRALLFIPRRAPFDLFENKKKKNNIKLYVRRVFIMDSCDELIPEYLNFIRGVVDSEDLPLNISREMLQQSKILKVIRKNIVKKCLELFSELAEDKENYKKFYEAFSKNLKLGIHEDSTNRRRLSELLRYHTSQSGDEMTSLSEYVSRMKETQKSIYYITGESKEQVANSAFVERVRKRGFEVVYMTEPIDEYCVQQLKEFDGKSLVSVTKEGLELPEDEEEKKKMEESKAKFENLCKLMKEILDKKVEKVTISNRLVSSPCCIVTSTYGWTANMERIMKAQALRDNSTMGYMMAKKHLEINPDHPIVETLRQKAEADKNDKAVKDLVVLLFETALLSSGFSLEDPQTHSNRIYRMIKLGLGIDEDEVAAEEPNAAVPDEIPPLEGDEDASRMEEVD
UniProt P0DMV8: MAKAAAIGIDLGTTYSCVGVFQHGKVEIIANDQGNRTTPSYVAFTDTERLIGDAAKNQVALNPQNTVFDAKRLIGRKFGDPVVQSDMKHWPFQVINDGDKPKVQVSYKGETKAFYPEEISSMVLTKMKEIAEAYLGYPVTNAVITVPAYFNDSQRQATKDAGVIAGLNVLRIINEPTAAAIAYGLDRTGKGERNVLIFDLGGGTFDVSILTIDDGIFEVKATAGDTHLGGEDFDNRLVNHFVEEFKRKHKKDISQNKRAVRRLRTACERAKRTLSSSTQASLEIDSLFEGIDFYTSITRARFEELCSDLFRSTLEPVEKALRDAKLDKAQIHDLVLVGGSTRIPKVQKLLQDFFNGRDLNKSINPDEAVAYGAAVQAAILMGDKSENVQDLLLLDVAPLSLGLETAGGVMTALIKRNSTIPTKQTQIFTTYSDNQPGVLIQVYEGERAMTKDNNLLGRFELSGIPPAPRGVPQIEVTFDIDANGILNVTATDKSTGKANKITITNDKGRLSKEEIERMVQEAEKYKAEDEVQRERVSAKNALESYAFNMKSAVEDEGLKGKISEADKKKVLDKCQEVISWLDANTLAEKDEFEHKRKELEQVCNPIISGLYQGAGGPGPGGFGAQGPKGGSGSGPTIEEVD

Molecular target: T1, N-terminal portion of Gsdma3 (A.A. 1-227) (mouse) (UniProt Q5Y4Y6)
T1 sequence: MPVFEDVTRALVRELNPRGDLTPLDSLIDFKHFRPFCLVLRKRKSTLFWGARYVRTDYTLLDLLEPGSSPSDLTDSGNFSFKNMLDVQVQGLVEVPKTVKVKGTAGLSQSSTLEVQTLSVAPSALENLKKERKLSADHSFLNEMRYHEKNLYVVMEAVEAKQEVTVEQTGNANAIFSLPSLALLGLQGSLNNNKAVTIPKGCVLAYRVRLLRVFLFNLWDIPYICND
Experiment: affinity purification with mass spectrometry; anti-flag immunoprecipitation from transfected HEK293T cells, SDS-PAGE, silver staining; unique bands Gel1 (approximately 100 kDa) and Gel2 (approximately 70 kDa) excised, nanoLC-MS/MS, Mascot search of human UniProt

Molecule	binding
Grp75 (from UniProt P38646 47-679)	binds
Hsp90α (from UniProt P07900 1-732)	binds
Hsp90β (from UniProt P08238 1-724)	binds
TNF receptor-associated protein 1 (protein, UniProt Q12931 60-704) STQTAEDKEEPLHSIISSTESVQGSTSKHEFQAETKKLLDIVARSLYSEKEVFIRELISNASDALEKLRHKLVSDGQALPEMEIHLQTNAEKGTITIQDTGIGMTQEELVSNLGTIARSGSKAFLDALQNQAEASSKIIGQFGVGFYSAFMVADRVEVYSRSAAPGSLGYQWLSDGSGVFEIAEASGVRTGTKIIIHLKSDCKEFSSEARVRDVVTKYSNFVSFPLYLNGRRMNTLQAIWMMDPKDVREWQHEEFYRYVAQAHDKPRYTLHYKTDAPLNIRSIFYVPDMKPSMFDVSRELGSSVALYSRKVLIQTKATDILPKWLRFIRGVVDSEDIPLNLSRELLQESALIRKLRDVLQQRLIKFFIDQSKKDAEKYAKFFEDYGLFMREGIVTATEQEVKEDIAKLLRYESSALPSGQLTSLSEYASRMRAGTRNIYYLCAPNRHLAEHSPYYEAMKKKDTEVLFCFEQFDELTLLHLREFDKKKLISVETDIVVDHYKEEKFEDRSPAAECLSEKETEELMAWMRNVLGSRVTNVKVTLRLDTHPAMVTVLEMGAARHFLRMQQLAKTQEERAQLLQPTLEINPRHALIKKLNQLRASEPGLAQLLVDQIYENAMIAAGLVDDPRAMVGRLNELLVKALERH	binds

Now from value to molecule:

binding	Molecule
binds	Hsp70 1A (from UniProt P0DMV8 1-641)
binds	Stress-induced-phosphoprotein 1 (from UniProt P31948 1-543)

Results are given in words; binding and its absence hold for the method and conditions named. In cells and extracts the contact can be indirect. These calls come from enrichment with a bait or labelling near it, and not all partners need be listed.
